Results taken from PubChem BioAssay AID540275 (National Center for Advancing Translational Sciences (NCATS), 2011).
Among all 320,000 compounds or so, about 620 (0.19%) were called active. The shares of active, inactive and inconclusive entries below differ from those in the screen. No stated cut-off is given here; in the data, active means activation above about 80%; inconclusive means between about 30% and that limit; inactive means weaker than that.

The chains behind the UniProt entries cited, without tags or fusion partners.
UniProt Q8NER1, whole entry, looked up: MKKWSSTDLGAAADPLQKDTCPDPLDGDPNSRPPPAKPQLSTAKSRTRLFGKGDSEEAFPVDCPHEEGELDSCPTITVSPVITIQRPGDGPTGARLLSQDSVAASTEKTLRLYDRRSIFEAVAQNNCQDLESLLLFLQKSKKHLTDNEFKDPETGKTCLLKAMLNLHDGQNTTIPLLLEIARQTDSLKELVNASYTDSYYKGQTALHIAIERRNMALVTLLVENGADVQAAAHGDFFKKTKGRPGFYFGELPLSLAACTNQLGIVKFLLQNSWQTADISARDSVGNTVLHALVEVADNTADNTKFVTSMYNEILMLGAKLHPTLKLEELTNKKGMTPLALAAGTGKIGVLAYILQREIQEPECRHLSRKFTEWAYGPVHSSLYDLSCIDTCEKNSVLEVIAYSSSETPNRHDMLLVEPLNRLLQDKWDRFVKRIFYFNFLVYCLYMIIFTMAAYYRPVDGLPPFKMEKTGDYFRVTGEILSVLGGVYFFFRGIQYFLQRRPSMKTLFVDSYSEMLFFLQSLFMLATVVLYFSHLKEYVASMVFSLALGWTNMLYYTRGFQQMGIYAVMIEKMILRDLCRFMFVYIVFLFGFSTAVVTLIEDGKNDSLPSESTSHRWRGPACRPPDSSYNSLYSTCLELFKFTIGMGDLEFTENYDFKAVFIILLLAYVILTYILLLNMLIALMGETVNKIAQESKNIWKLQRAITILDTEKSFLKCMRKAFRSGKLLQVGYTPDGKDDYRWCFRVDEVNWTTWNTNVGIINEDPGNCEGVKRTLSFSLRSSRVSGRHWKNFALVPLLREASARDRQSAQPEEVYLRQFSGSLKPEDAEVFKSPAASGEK

biological target: Transient receptor potential cation channel subfamily V member 1 (Homo sapiens) (UniProt Q8NER1); assay: HTS Assay for Compounds that Act as Agonists of the Vanilloid Receptor 1; conditions: TRPV1-expressing cells, Fluo-8 calcium influx, agonist mode; at 8.33 µM, hits give high values; further: 0% is about no effect
Summary of the method: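 Fluo-8 calcium influx in TRPV1-expressing cells, kinetic read (ex 480/em 520 nm). Compound added and read 3 min for agonist activity, followed by capsaicin at EC20 final and 2 min further read for enhancement.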

Row | Compound | activation
1 | COc1ccc(-c2noc(C)c2-c2ccc3ccccc3n2)c(O)c1 | inconclusive: 48.9%
2 | O=C(COC(=O)c1cc(F)c(F)cc1Cl)NC1CC1 | inactive: 1.47%
3 | CC1CCN(c2c(NCc3ccc(C(=O)NCc4ccccc4)cc3)c(=O)c2=O)CC1 | inconclusive: 35.7%
4 | CCn1cc([N+](=O)[O-])c(C(=O)N2N=C(c3ccc4ccccc4c3)CC2c2ccccc2O)n1 (stereo not given) | inactive: 0.558%
5 | O=C(Nc1ccccn1)c1ccc(Cl)c(S(=O)(=O)N2CCCCCC2)c1 | inconclusive: 48.2%
6 | CC(=O)Nc1ccc(-c2csc(N/N=C(/C)c3ccccc3)n2)cc1 | inactive: 1.19%
7 | CC(C)Cc1ccc(C(C)C(=O)Nc2ccc(O)cc2)cc1 (stereo not given) | inconclusive: 66.1%
8 | Cc1oc(-c2cccc(Cl)c2)nc1CS(=O)(=O)CC(=O)NCCN1CCOCC1 | inactive: 3.69%
9 | Cc1ccc(C(=O)N/C(=C\c2ccc(-c3cccc([N+](=O)[O-])c3)o2)C(=O)NCCCN2CCOCC2)cc1 | inactive: -1.93%
10 | CC(=O)Nc1ccc(NC(=O)c2nc(S(=O)(=O)Cc3ccccc3)ncc2Cl)cc1 | inactive: 1%
11 | CC1(C)Cc2c(c(N3CCOCC3)nc3sc4c(N5CCOCC5)nnnc4c23)CS1 | inconclusive: 39.2%
12 | COc1ccc(CN(C)C(=O)c2cc(S(=O)(=O)N3CCOCC3)ccc2N2CCCC2)cc1 | inactive: -4.65%
13 | CCN(CC(=O)Nc1cccc(F)c1)CC(=O)Nc1ccccc1OC | inactive: 16.7%
14 | O=C(NCCNc1ccc([N+](=O)[O-])cc1C(F)(F)F)c1cccc(F)c1 | inactive: 11.3%
15 | COc1ccc2ccc(OCC(=O)NCC3CCCO3)cc2c1 (stereo not given) | inconclusive: 50.5%
16 | COc1ccc(/C=N/n2c(C)nc3ccccc3c2=O)cc1 | inconclusive: 63.5%
17 | COC(=O)C1CCN(C(=O)COC(=O)c2ccc(=O)n(Cc3ccccc3)n2)CC1 | inactive: 0.0867%
18 | Cc1ccc(C2=NN(C(=O)c3ccco3)C(O)(C(F)(F)F)C2)cc1 (stereo not given) | inactive: 6.98%
19 | Cc1ccc(C(=O)C2=C(O)C(=O)N(c3ncccn3)C2c2ccc(Cl)cc2)o1 (stereo not given) | inactive: -1.56%
20 | O=C(CN1CCN(c2ccccc2F)CC1)NCc1ccccc1 | inconclusive: 45.9%
21 | Cc1ccc(N2C(=O)N(CC(=O)c3cc(C)ccc3C)C(=O)C2C)cc1 (stereo not given) | inconclusive: 31.8%
22 | Cc1ccc(Cn2ccc(=O)c(OCc3c(Cl)cccc3Cl)c2C)cc1 | inactive: -13.7%
23 | CCOc1nc(Nc2ccc(OC)c(Cl)c2)nc(N2CCN(c3ccc(OC)cc3)CC2)n1 | inactive: 2.25%

Row | Compound | activation
24 | COc1cc(C)ccc1OCCOc1c(C)cc(Cl)cc1Cl | inactive: 2.73%
25 | CCCNC(=O)c1ccc2c(c1)nc(C)n2-c1cccc(Cl)c1 | inconclusive: 37.6%
26 | Cc1cc(C=O)c(C)n1-c1cc(C(F)(F)F)ccc1N1CCOCC1 | inconclusive: 39.6%
27 | Cc1ccc(C(=O)c2ccccc2C(=O)OCC(=O)NCCc2ccccc2)cc1 | inconclusive: 40.5%
28 | Oc1cccc(/C=N\Nc2nncc(-c3ccccc3)n2)c1 | inconclusive: 41.6%
29 | Cc1ccc(C(=O)Nc2nc3ccc(S(C)(=O)=O)cc3s2)cc1C | inconclusive: 48.5%
30 | CC(C)(C)c1cc(S(=O)(=O)CCc2ccccn2)cc(C(C)(C)C)c1F | inconclusive: 51.1%
31 | CC(C)c1ccccc1NC(=S)N1CCN(Cc2ccc3c(c2)OCO3)CC1 | inactive: 13.4%
32 | CC(C)(C)c1ccc(/C=C2\Oc3cc(O)ccc3C2=O)cc1 | inconclusive: 54.1%
33 | Oc1ccc(N2CCN(c3nc(-c4cccs4)nc4ccccc34)CC2)cc1 | inconclusive: 33.4%
34 | O=C(NCc1cccc(Cl)c1)c1ccc2nc(N3CCOCC3)sc2c1 | inconclusive: 38.5%
35 | O=C(CSc1nc2ccccc2[nH]1)NCCc1ccc(Cl)cc1 | inconclusive: 64%
36 | NS(=O)(=O)c1cnccc1Nc1ccc(Cl)cc1 | inconclusive: 40.8%
37 | CCCCn1c(CNC(=O)Cc2ccccc2)nc2ccccc21 | inconclusive: 65.3%
38 | COC(=O)c1ccc(NC(=O)c2ccc3nsnc3c2)cc1 | inconclusive: 62.2%
39 | Cc1cc(C)cc(OCC(=O)Nc2ccc(N3CCOCC3)cc2N2CCOCC2)c1 | inconclusive: 42.2%
40 | Cc1c(Cl)cccc1NC(=S)NCc1ccc(F)cc1 | inconclusive: 62.9%
41 | CC(Oc1ccc(F)cc1)C(=O)Nc1cc(S(=O)(=O)N2CCCCC2)ccc1N1CCOCC1 (stereo not given) | inconclusive: 37.2%
42 | CSc1ccccc1OCc1cc(C(=O)N2CCSCC2)no1 | inconclusive: 52.9%
43 | O=C(Oc1ccc(-c2ccccc2)cc1)N1CCOCC1 | inconclusive: 34.5%
44 | O=C(c1ccc(Cl)c(S(=O)(=O)N2CCCCC2)c1)N1CCCCCC1 | inconclusive: 49.1%
45 | O=C(Nc1cccc2ccccc12)c1cccc([N+](=O)[O-])c1 | inconclusive: 53.1%
